Test results from patent US7776873B2, “Method for treating damage to gastric mucosa” (Yuhan Corporation, priority 2005, dated 2010).
At least one compound was matched to its structure with a doubt left.

Test system: indomethacin-induced gastric mucosal lesions
Experiment: Preventive effect on NSAID-induced gastropathy
Type: in vivo, Sprague Dawley male rats
Details: rats, oro-gastric pretreatment (revaprazan 5, 10 mg/kg; rebamipide 30 mg/kg; omeprazole 5 mg/kg) prior to indomethacin 40 mg/kg for 12 hrs, FIG. 8
Experimental: Six-week old specific-pathogen-free (SPF) Sprague Dawley male rats (Charles River, Tokyo, Japan) were used for experiments. The rats were fed a sterilized commercial pellet diet (Biogenomics Co., Seoul, Korea), given sterile water ad libitum, and housed in air-conditioned biohazard room with a 12-h light:12-h dark cycle. The rats were food-deprived 24 hours, and then administered with 5, 10 mg/kg revaprazan, 30 mg/kg rebamipide and 5 mg/kg omeprazole suspended in 0.5% CMC (carboxymethylcellulose) via oro-gastric tube prior to exposure to indomethacin (40 mg/kg for 12 hrs). Phosphate-buffered saline was perfused into the gastric lumen of the rats to swell the stomachs. Then, the stomachs were opened by an incision along the greater curvature, and the total area of the gastric mucosal lesions was calculated to obtain the average size of the lesions.

COc1ccc2[nH]c([S+]([O-])Cc3ncc(C)c(OC)c3C)nc2c1 (stereo not shown) [omeprazole]
hemorrhagic gastric mucosal lesions after pretreatment: hemorrhagic lesions are observed
